Measured data: PubChem BioAssay AID743454 (Peter MacCallum Cancer Centre, 2014)
This is one part, drawn at random, of about 18,000 deposited reagents. 450 of all reagents (2.5%) count as active. 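Single biological run; no consistent viability z cut-off exists, so the class columns, not z-scores, define the calls.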 Entries without a mark were called inactive.

Aim: 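Genes whose loss kills vorinostat-resistant colon cancer cells under vorinostat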 (primary screen)
Cells: human HCT116-VR colon cancer cells, selected for vorinostat resistance
Knock-down reagent: siRNA pool against human genes, 40 nM siRNA pool
Duration: vorinostat for 24 h, read-out about 72 h after transfection
Challenge: vorinostat at 2.5 µM final
Read-out: 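Cell viability by CellTiter-Fluor and caspase 3/7 activity by luminescence, each scaled to mock wells per plate, duplicates averaged, then robust z-scored over all plates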
Scale: viability robust z-score: higher = more viable cells than screen typical; caspase robust z-score: higher = more caspase 3/7 activity than screen typical
Rule for the call: 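Hits are knock-downs in viability class RV1/RV2 or caspase class CA1/CA2, excluding ones that killed cells in the no-drug cell-count arm; hits then retested with single siRNAs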

CREB3L2 (GeneID 64764) showed viability hit class no change; caspase hit class no change; viability robust z-score -0.28; caspase robust z-score 0.02.
SLC4A1AP (GeneID 22950) gave viability hit class no change; caspase hit class no change; viability robust z-score -0.81; caspase robust z-score -0.38.
For OR7D4 (GeneID 125958) the deposit lists viability hit class no change; caspase hit class no change; viability robust z-score 0.36; caspase robust z-score 0.27.
Knock-down of SNX11 (GeneID 29916) gave: viability hit class no change; caspase hit class no change; viability robust z-score 0.48; caspase robust z-score 2.96.
Against PNLDC1 (GeneID 154197), the values are viability hit class no change; caspase hit class no change; viability robust z-score 0.8; caspase robust z-score -0.73.
After knock-down of C1QC (GeneID 714), the screen gave viability hit class no change; caspase hit class no change; viability robust z-score 0; caspase robust z-score -0.82.
Knock-down of OR10C1 (GeneID 442194) resulted in: viability hit class no change; caspase hit class no change; viability robust z-score 2.04; caspase robust z-score 0.34.
For CYP4B1 (GeneID 1580) the deposit lists viability hit class no change; caspase hit class no change; viability robust z-score 0.56; caspase robust z-score -0.03.

A portion from the list above:
OR7D4 (GeneID 125958) → viability hit class: no change; caspase hit class: no change; viability robust z-score: 0.36; caspase robust z-score: 0.27
SNX11 (GeneID 29916) → viability hit class: no change; caspase hit class: no change; viability robust z-score: 0.48; caspase robust z-score: 2.96

Additional records follow.
For FOXD4L4 (GeneID 349334) the deposit lists viability hit class no change; caspase hit class no change; viability robust z-score -0.24; caspase robust z-score -0.01.
Depletion of BET1 (GeneID 10282) came out at: viability hit class no change; caspase hit class no change; viability robust z-score 0.8; caspase robust z-score 0.2.
Knock-down of DARS1 (GeneID 1615) resulted in: viability hit class no change; caspase hit class no change; viability robust z-score -0.53; caspase robust z-score -0.08.
With knock-down of OTUB2 (GeneID 78990), the screen gave viability hit class no change (active); caspase hit class CA2 (caspase activation); viability robust z-score -0.06; caspase robust z-score 5.19.
KRTAP5-4 (GeneID 387267) gave viability hit class no change; caspase hit class no change; viability robust z-score -0.15; caspase robust z-score 0.78.
Silencing of FTCD (GeneID 10841) gave: viability hit class no change; caspase hit class no change; viability robust z-score 0.48; caspase robust z-score -0.77.
